PubChem BioAssay AID1224830 | NIAID, 2016
This is one part, drawn at random, of about 18,000 deposited reagents. About 2,900 of all reagents (16%) were called active. 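Calls are made per well; low scores hint the gene aids the LPS response, high scores that it dampens it.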 Repeated entries: four replicate wells of each siRNA pool.

Assay: 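Regulators of TLR4 signalling towards TNF-alpha in macrophage-like cells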 (primary screen)
System: human THP-1 monocytic leukaemia cells, TNF dual-luciferase reporter clone, PMA-differentiated to macrophage-like cells
Reagent: siRNA pool against human genes, 50 nM
Timing: LPS for 4 h, given about 3 days after siRNA transfection
Conditions: bacterial LPS (TLR4 ligand), 10 ng/ml
Detection: 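Ratio of firefly to renilla light, scaled to the plate median and expressed as a robust z-score per replicate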
Scale: TNF reporter robust z-score: higher = stronger TNF reporter response to LPS
Rule for the call: 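a well is active when its z-score exceeds 2.8 or falls below -1.5; control wells carry no call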

HMGN5 → TNF reporter robust z-score: -1.53; call: active
HMGN5 → TNF reporter robust z-score: -1.54; call: active
HMGN5 → TNF reporter robust z-score: -1.77; call: active
HMGN5 → TNF reporter robust z-score: -1.42; call: inactive
GABRG3 → TNF reporter robust z-score: 0.63; call: inactive
GABRG3 → TNF reporter robust z-score: 0.22; call: inactive
GABRG3 → TNF reporter robust z-score: 0.15; call: inactive
GABRG3 → TNF reporter robust z-score: 0.24; call: inactive
ARHGEF25 → TNF reporter robust z-score: 0.14; call: inactive
ARHGEF25 → TNF reporter robust z-score: 0.34; call: inactive
ARHGEF25 → TNF reporter robust z-score: 0.01; call: inactive
ARHGEF25 → TNF reporter robust z-score: 0.68; call: inactive
SLC35D3 → TNF reporter robust z-score: 0.6; call: inactive
SLC35D3 → TNF reporter robust z-score: 1.46; call: inactive
SLC35D3 → TNF reporter robust z-score: 0.26; call: inactive

The list goes on, starting with the last 2 of the part before.
SLC35D3 → TNF reporter robust z-score: 1.46; call: inactive
SLC35D3 → TNF reporter robust z-score: 0.26; call: inactive
HJURP → TNF reporter robust z-score: 0.07; call: inactive
HJURP → TNF reporter robust z-score: 0.14; call: inactive
HJURP → TNF reporter robust z-score: -0.58; call: inactive
HJURP → TNF reporter robust z-score: -0.05; call: inactive
CR1 → TNF reporter robust z-score: -0.95; call: inactive
CR1 → TNF reporter robust z-score: 0.3; call: inactive
CR1 → TNF reporter robust z-score: 0.82; call: inactive
CR1 → TNF reporter robust z-score: 1.24; call: inactive
PRKAB2 → TNF reporter robust z-score: -0.14; call: inactive
PRKAB2 → TNF reporter robust z-score: 1.11; call: inactive
PRKAB2 → TNF reporter robust z-score: 0.56; call: inactive
PRKAB2 → TNF reporter robust z-score: -0.1; call: inactive
SLC1A3 → TNF reporter robust z-score: -0.77; call: inactive
SLC1A3 → TNF reporter robust z-score: -0.93; call: inactive
SLC1A3 → TNF reporter robust z-score: -0.97; call: inactive
SLC1A3 → TNF reporter robust z-score: -0.7; call: inactive
TBC1D13 → TNF reporter robust z-score: 0.42; call: inactive
TBC1D13 → TNF reporter robust z-score: 0.2; call: inactive
TBC1D13 → TNF reporter robust z-score: -0.93; call: inactive
TBC1D13 → TNF reporter robust z-score: 0.93; call: inactive
ANKRD37 → TNF reporter robust z-score: -0.61; call: inactive
ANKRD37 → TNF reporter robust z-score: 1.36; call: inactive
ANKRD37 → TNF reporter robust z-score: 2.14; call: inactive
ANKRD37 → TNF reporter robust z-score: 2.52; call: inactive
ZNF667 → TNF reporter robust z-score: -0.43; call: inactive
ZNF667 → TNF reporter robust z-score: -0.5; call: inactive
ZNF667 → TNF reporter robust z-score: -0.77; call: inactive
ZNF667 → TNF reporter robust z-score: 0.02; call: inactive
CPNE5 → TNF reporter robust z-score: -2.12; call: active
CPNE5 → TNF reporter robust z-score: -1.53; call: active
CPNE5 → TNF reporter robust z-score: -1.97; call: active
CPNE5 → TNF reporter robust z-score: -1.68; call: active
